Consider two molecules from publication doi:10.1101/2021.07.15.452545.

Chains of the proteins cited; added tags and fusions are not shown. Lines headed by an entry give the natural chain unless they say otherwise; changes in a name come on top.
UniProt P63096, whole entry, looked up, stated change not applied: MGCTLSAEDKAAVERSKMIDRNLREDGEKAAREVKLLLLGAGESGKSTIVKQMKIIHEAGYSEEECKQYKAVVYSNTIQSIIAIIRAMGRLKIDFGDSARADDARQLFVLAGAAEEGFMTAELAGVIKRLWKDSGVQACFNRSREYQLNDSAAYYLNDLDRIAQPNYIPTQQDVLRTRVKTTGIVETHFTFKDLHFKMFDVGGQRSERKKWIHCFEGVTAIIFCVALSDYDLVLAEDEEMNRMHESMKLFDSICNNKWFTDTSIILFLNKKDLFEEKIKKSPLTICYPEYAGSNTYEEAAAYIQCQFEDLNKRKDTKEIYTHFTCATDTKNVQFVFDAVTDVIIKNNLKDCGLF

The experiment concerns the target BioID2-Gαi1-Q204L (human) (UniProt P63096). The experiment in a line: proximity labelling.

These are yes or no findings as the source states them, for the method shown. In cells and extracts the contact can be indirect. Here binding means that the protein was enriched with, or labelled near, the bait; the list need not be complete. Tags and fused reporters may be left off the sequences shown.

B1: HA-PSPC1 (protein, UniProt Q8WXF1 1-523)
chain: MMLRGNLKQVRIEKNPARLRALESAVGESEPAAAAAMALALAGEPAPPAPAPPEDHPDEEMGFTIDIKSFLKPGEKTYTQRCRLFVGNLPTDITEEDFKRLFERYGEPSEVFINRDRGFGFIRLESRTLAEIAKAELDGTILKSRPLRIRFATHGAALTVKNLSPVVSNELLEQAFSQFGPVEKAVVVVDDRGRATGKGFVEFAAKPPARKALERCGDGAFLLTTTPRPVIVEPMEQFDDEDGLPEKLMQKTQQYHKEREQPPRFAQPGTFEFEYASRWKALDEMEKQQREQVDRNIREAKEKLEAEMEAARHEHQLMLMRQDLMRRQEELRRLEELRNQELQKRKQIQLRHEEEHRRREEEMIRHREQEELRRQQEGFKPNYMENREQEMRMGDMGPRGAINMGDAFSPAPAGNQGPPPMMGMNMNNRATIPGPPMGPGPAMGPEGAANMGTPMMPDNGAVHNDRFPQGPPSQMGSPMGSRTGSETPQAPMSGVGPVSGGPGGFGRGSQGGNFEGPNKRRRY
As for B1, the binding result is reported as “binds”.

B2: FLAG-p54-HA (protein, UniProt Q15233 1-471)
chain: MQSNKTFNLEKQNHTPRKHHQHHHQQQHHQQQQQQPPPPPIPANGQQASSQNEGLTIDLKNFRKPGEKTFTQRSRLFVGNLPPDITEEEMRKLFEKYGKAGEVFIHKDKGFGFIRLETRTLAEIAKVELDNMPLRGKQLRVRFACHSASLTVRNLPQYVSNELLEEAFSVFGQVERAVVIVDDRGRPSGKGIVEFSGKPAARKALDRCSEGSFLLTTFPRPVTVEPMDQLDDEEGLPEKLVIKNQQFHKEREQPPRFAQPGSFEYEYAMRWKALIEMEKQQQDQVDRNIKEAREKLEMEMEAARHEHQVMLMRQDLMRRQEELRRMEELHNQEVQKRKQLELRQEEERRRREEEMRRQQEEMMRRQQEGFKGTFPDAREQEIRMGQMAMGGAMGINNRGAMPPAPVPAGTPAPPGPATMMPDGTLGLTPPTTERFGQAATMEGIGAIGGTPPAFNRAAPGAEFAPNKRRRY
With B2, the binding entry was “binds”.
